Measurements: PubChem BioAssay AID328 (DTP/NCI, 2004)
The list shows only some results of the screen, not a fair sample: it gathers tests that were run many times, whatever their T/C, doses with no T/C, and many T/C values between a quarter and a half above the control. Further doses and runs are listed elsewhere. T/C is the treated group as % of the vehicle group. Some entries give survivors of the animals treated and no T/C: the source files T/C as zero there, which appears to mark a toxic dose or a test without result, not a measured value. Some doses without a T/C left all or most animals alive at the check, yet need not have been tolerated: survival well below the control is almost never listed, so the zero probably covers shortened survival too. Survivors were counted at the toxicity check, usually on the fifth day, unless a day is given; later deaths do not show. Schedule codes are those of the source, read here as Q, the interval in days (D) or hours (H), X, the number of doses. Some doses were run more than once; the values are given in rising order. For survival time, the PubChem record calls one and a half times the control and up active, and a quarter to a half above the control has no call in these data; cut-offs in other NCI protocols can differ. Some T/C values are followed by the survivors on the day toxicity was checked, most often the fifth; where none is given, no animal had died by that day.

System: BDF1 mice, P388 leukemia ip, median survival T/C
Assay: NCI In Vivo Anticancer Drug Screen. Data for tumor model P388 Leukemia (intraperitoneal) in B6D2F1 (BDF1) mice
Details: T/C endpoint: median survival time, higher T/C = longer survival
In short: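 Steps: implant the tumour, treat one group with compound and another with vehicle, record survival, then divide treated by control.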

[1] = dose: 50.0 mg/kg/injection, schedule: Q01DX009 (ip), vehicle: saline
[2] = dose: 200.0 mg/kg/injection, schedule: Q01DX009 (ip), vehicle: Klucel (hydroxypropylcellulose) (HPC)

O=S(=O)(O)O.[NH-]CC(N)=O.[NH-]CC(N)=O.[Ni+2]
survivor count (dose: 25.0 mg/kg/injection, schedule: Q01DX009 (ip), vehicle: water): 6 of 6
survivor count (dose: 50.0 mg/kg/injection, schedule: Q01DX009 (ip), vehicle: water): 4 of 6
survivor count (dose: 100.0 mg/kg/injection, schedule: Q04DX003 (ip), vehicle: water): 2 of 6

Nc1nc2n[nH]nc2c(=O)[nH]1
T/C (dose: 25.0 mg/kg/injection, schedule: Q01DX010 (ip), vehicle: alkali diluted with saline): 135 % of control
T/C (dose: 100.0 mg/kg/injection, schedule: Q01DX010 (ip), vehicle: alkali diluted with saline): 136 % of control

O=C(/C=C/c1ccc(OCc2ccccc2)cc1)c1cccs1
survivor count (dose: 200.0 mg/kg/injection, schedule: Q01DX009 (ip), vehicle: saline with Tween-80): 5 of 6

c1nc(SC2=NCCN2)c2[nH]cnc2n1
T/C (dose: 4.12 mg/kg/injection, schedule: Q01DX009 (ip), vehicle: saline): 140 % of control
T/C (dose: 6.25 mg/kg/injection, schedule: Q01DX009 (ip), vehicle: saline): 127 % of control
T/C (dose: 9.37 mg/kg/injection, schedule: Q01DX009 (ip), vehicle: saline): 145 % of control
T/C (dose: 18.0 mg/kg/injection, schedule: Q01DX009 (ip), vehicle: saline): 135 % of control
survivor count (dose: 25.0 mg/kg/injection, schedule: Q04DX003 (ip), vehicle: saline): 3 of 6
T/C (dose: 28.0 mg/kg/injection, schedule: Q01DX009 (ip), vehicle: saline): 140 % of control
T/C (dose: 40.0 mg/kg/injection, schedule: Q01DX009 (ip), vehicle: saline): 140 % of control [5 of 6 alive]
T/C [1]: 126 and 138 % of control
survivor count [1]: 3 of 6
survivor count (dose: 50.0 mg/kg/injection, schedule: Q04DX003 (ip), vehicle: saline): 3 of 6
survivor count (dose: 75.0 mg/kg/injection, schedule: Q01DX009 (ip), vehicle: saline): 0 of 6 and 3 of 6

O=C1N(Br)C(=O)C(c2ccc(Cl)cc2)(c2ccc(Cl)cc2)N1Br
T/C (dose: 25.0 mg/kg/injection, schedule: Q01DX009 (ip), vehicle: saline with Tween-80): 131 % of control
T/C (dose: 100.0 mg/kg/injection, schedule: Q01DX009 (ip), vehicle: Klucel (hydroxypropylcellulose) (HPC)): 141 % of control
T/C (dose: 130.0 mg/kg/injection, schedule: Q01DX003 (ip), vehicle: Klucel (hydroxypropylcellulose) (HPC)): 136 % of control
T/C [2]: 141 % of control
survivor count [2]: 3 of 6
T/C (dose: 200.0 mg/kg/injection, schedule: Q04DX003 (ip), vehicle: saline): 125 % of control
survivor count (dose: 300.0 mg/kg/injection, schedule: Q01DX003 (ip), vehicle: Klucel (hydroxypropylcellulose) (HPC)): 3 of 6
survivor count (dose: 300.0 mg/kg/injection, schedule: Q01DX009 (ip), vehicle: Klucel (hydroxypropylcellulose) (HPC)): 0 of 6
survivor count (dose: 300.0 mg/kg/injection, schedule: Q04DX003 (ip), vehicle: Klucel (hydroxypropylcellulose) (HPC)): 6 of 6
survivor count (dose: 400.0 mg/kg/injection, schedule: Q01DX009 (ip), vehicle: Klucel (hydroxypropylcellulose) (HPC)): 0 of 6
survivor count (dose: 400.0 mg/kg/injection, schedule: Q04DX003 (ip), vehicle: saline sonified): 4 of 6

CCOC(=O)/C(C)=C\c1c(C)[nH]c(=O)[nH]c1=O
survivor count (dose: 100.0 mg/kg/injection, schedule: Q04DX003 (ip), vehicle: saline): 6 of 6

CCN(CC)CCCC(C)NC/C=C/CNC(C)CCCN(CC)CC (centres undefined)
survivor count (dose: 6.25 mg/kg/injection, schedule: Q01DX009 (ip), vehicle: water): 6 of 6

O=C1CC2(C(=O)N1CN1CCN(c3ccc(F)cc3)CC1)c1ccccc1-c1ccccc12 (tested in a mixture with another compound)
T/C (dose: 50.0 mg/kg/injection, schedule: Q04DX003 (ip), vehicle: saline with Tween-80): 135 % of control
T/C (dose: 100.0 mg/kg/injection, schedule: Q04DX003 (ip), vehicle: saline with Tween-80): 146 % of control [5 of 6 alive]
survivor count (dose: 200.0 mg/kg/injection, schedule: Q04DX003 (ip), vehicle: saline with Tween-80): 2 of 6 and 3 of 6

CCCCCCCCCCC(=O)[O][Sn]([CH](C)C)([CH](C)C)[CH](C)C
survivor count (dose: 50.0 mg/kg/injection, schedule: Q01DX009 (ip), vehicle: saline + Tween-80 + alcohol): 0 of 6
